# Data: PubChem BioAssay AID493014 (National Center for Advancing Translational Sciences (NCATS), 2011)
# The list shows a part of the results. The main result of the screen is listed elsewhere. These columns were measured beside it and carry no call. Most of these compounds were active or inconclusive in the main read-out, so they are no random draw. Words in brackets tell the shape of the fitted curve; partial curves, single points and poor fits give uncertain potencies.
# Assay: qHTS Assay to Find Inhibitors of Chronic Active B-Cell Receptor Signaling
# Conditions: ABC-DLBCL IkBa-CBG/CBR reporter, luminescence ratio (green luciferase fused to IkBa over red control in TMD8 lymphoma cells), 4 h
# Summary of the method: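 Cell line TMD8 (human ABC DLBCL), stably expressing tet-inducible CBG68-IkBa fusion and CBR; IMDM/0.5% FBS; cpd up to 46 uM; dox induction, 4 h, 37C/5% CO2; dual luminescence; green/red ratio; MG132 control.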
# [1] = measured here: CBR red luminescence, cell number
Structure (SMILES),AC50 [1],AC50 (measured here: IkBa-CBG green luminescence)
CCCCC(NC(=O)CCc1c(C)c2cc3c4c(oc3c(C)c2oc1=O)CCCC4)C(=O)O (stereo unspecified),"0.112 µM [rising, full curve, poor fit]",
O=C(C(Cc1ccccc1)n1cccc1)N1CCc2ccccc21 (stereo unspecified),"23.1 µM [falling, single point]",
C=C1CCC[C@]2(C)C[C@H]3OC(=O)C(CN4CCOCC4)[C@H]3C[C@@H]12 (stereo partly specified),"14.1 µM [falling, single point]",
Cc1ccc(CNc2ccc(N3CCOCC3)cc2)s1,"29.1 µM [rising, single point]",
COc1ccccc1Nc1nc(-c2sc(N)nc2C)cs1,"7.94 µM [falling, partial curve]",
CCOc1nc(NCCN2CCOCC2)nc(Nc2ccc(C)cc2)n1,"0.0891 µM [falling, full curve, poor fit]",
C[C@H](CO)N1C[C@H](C)[C@@H](CN(C)Cc2ccc(C(=O)O)cc2)Oc2ccc(NC(=O)Cn3cnnn3)cc2C1=O,"23.1 µM [rising, partial curve, poor fit]",
COc1ccccc1Nc1nnc(Cc2ccccc2)c(=O)[nH]1,"7.94 µM [falling, partial curve, poor fit]",
CCc1nc(Nc2ccc(NC(C)=O)cc2)c2oc3ccccc3c2n1,"3.55 µM [falling, partial curve, poor fit]",
CC(=O)Nc1cccc(C(=O)NC(C)c2ccc(S(N)(=O)=O)cc2)c1 (stereo unspecified),"6.51 µM [rising, single point]",
O=C(Nc1ccc2nccnc2c1)c1cnccn1,"29.1 µM [falling, single point]",
COc1ccc(C2CC(c3ccccc3)=NN2C(=O)CN2N=NC3C(=O)N(c4cccc(F)c4)C(=O)C32)cc1 (stereo unspecified),"23.1 µM [rising, single point]",
CN(C)/C=C1/N=C(c2ccccc2)OC1=O,"29.1 µM [rising, partial curve, poor fit]",
O=C(O)CCCCN1C(=O)/C(=C\c2ccc(OCc3ccccc3)c(OCc3ccccc3)c2)SC1=S,"35.5 µM [falling, single point]",
COc1ccc(-c2nnc(SCC(=O)OC3CCCCC3)o2)cc1OC,"35.5 µM [falling, single point]",
NS(=O)(=O)c1ccc(CCNC(=O)CCCCCn2c(=S)[nH]c3ccc(Br)cc3c2=O)cc1,"14.1 µM [falling, partial curve]",
Cc1[nH]c2ccccc2c(=O)c1CN(C)Cc1ccccc1,"29.1 µM [falling, single point]",
Cc1ccc(OCc2cc(C(=O)N3CCC(C(O)C(C)C)CC3)no2)cc1C (stereo unspecified),"25.1 µM [falling, single point]",
CCC(=O)N(Cc1cc(=O)[nH]c2ccccc12)c1ccccc1C,"11.2 µM [falling, single point]",
CCOC(=O)c1c(C)[nH]c(C)c1S(=O)(=O)NCC1CCN(Cc2cccc(Cl)c2)CC1,"14.1 µM [rising, partial curve]",
COC(=O)c1ccc(N2CCOCC2)c(F)c1,"3.66 µM [rising, full curve]",

Structure (SMILES),AC50 [1],AC50 (measured here: IkBa-CBG green luminescence)
O=C1Nc2ccccc2N(O)N1c1cc(-c2ccccc2Cl)no1,"9.2 µM [falling, partial curve, poor fit]",
C=CCC[C@@H](Cc1ccc(F)cc1)C(=O)OC[C@@H](Cc1c[nH]c2ccccc12)NC(=O)[C@H](CC=C)CC(=O)NCCO,"29.1 µM [falling, single point]",
Cc1cc(-n2c(C)cc(C(=O)CCl)c2C)no1,,"35.5 µM [falling, single point]"
COc1ccccc1N1CCN(C(=S)NC(=O)/C=C/c2ccc(F)cc2)CC1,"22.4 µM [falling, single point]",
O=C1N/C(=N/Nc2ccccc2)S/C1=C\c1ccccc1,"3.55 µM [falling, partial curve, poor fit]",
O=C(OCc1cc(Cl)cc2c1OCOC2)c1cccnc1Cl,"25.9 µM [rising, partial curve]",
Cc1ccc(C(=O)c2cc3ccccc3o2)cc1C,"5.8 µM [rising, full curve, poor fit]",
CSc1nnc(C2CCCN(CC(=O)Nc3ccccc3N3CCOCC3)C2)n1C(C)C (stereo unspecified),"10 µM [falling, partial curve, poor fit]",
Cc1nn(CC(O)COc2ccc3c(c2)CCC3)c(C)c1C (stereo unspecified),"18.4 µM [rising, partial curve, poor fit]",
Cc1cc(-c2ccccc2)nc(-c2ccccc2)c1C,"17.8 µM [falling, partial curve, poor fit]",
CCN1C(=O)c2cccc3c(S(=O)(=O)Nc4ccccc4)ccc1c23,"35.5 µM [rising, single point]",
COc1ccc(NC(=O)CN(Cc2ccco2)Cc2ccco2)cc1S(=O)(=O)N1CCCCC1,"25.9 µM [falling, single point]",
NC(=O)c1sc2nc3c(c(-c4ccco4)c2c1N)CCC3,"0.00651 µM [falling, full curve, poor fit]",
CN(Cc1ccccc1)c1nc(CN2CCOCC2)nc2scc(-c3ccccc3)c12,"3.66 µM [rising, single point]",
N#C/C(=C(/O)CN1CCCC1)c1nc(-c2ccccc2)cs1,"8.91 µM [falling, partial curve, poor fit]",
COc1ccc(Cn2c(C)cc3c(c2=O)C(c2cccs2)C(C#N)=C(N)O3)cc1OC (stereo unspecified),"7.31 µM [rising, partial curve, poor fit]",
O=C(CN1CCCCCC1)Nc1c(Cl)cc(Cl)cc1Cl,"15.8 µM [rising, single point]",
O=C(NN=Cc1ccccc1OC(F)F)c1ccc(NS(=O)(=O)c2cccs2)cc1,"20.6 µM [falling, partial curve, poor fit]",
COCCN1CCn2c(nc3cc(NC(=O)Cn4nc(C)c5ccccc5c4=O)ccc32)C1,"1 µM [rising, partial curve, poor fit]",
NC(=O)CC(NC(=O)Cc1cccc2ccccc12)c1ccc(NCC2CC2)c([N+](=O)[O-])c1 (stereo unspecified),"35.5 µM [rising, single point]",

# Part of the list above, set out differently:
Structure (SMILES) | AC50 [1] | AC50 (measured here: IkBa-CBG green luminescence)
COC(=O)c1ccc(N2CCOCC2)c(F)c1 | 3.66 µM [rising, full curve] | 
NC(=O)c1sc2nc3c(c(-c4ccco4)c2c1N)CCC3 | 0.00651 µM [falling, full curve, poor fit] | 
